Binding data for two molecules are collected here from article PMC6684635.

This assay deals with T1, His6-HaloTag-syt-17 (UniProt Q62807).
T1 sequence: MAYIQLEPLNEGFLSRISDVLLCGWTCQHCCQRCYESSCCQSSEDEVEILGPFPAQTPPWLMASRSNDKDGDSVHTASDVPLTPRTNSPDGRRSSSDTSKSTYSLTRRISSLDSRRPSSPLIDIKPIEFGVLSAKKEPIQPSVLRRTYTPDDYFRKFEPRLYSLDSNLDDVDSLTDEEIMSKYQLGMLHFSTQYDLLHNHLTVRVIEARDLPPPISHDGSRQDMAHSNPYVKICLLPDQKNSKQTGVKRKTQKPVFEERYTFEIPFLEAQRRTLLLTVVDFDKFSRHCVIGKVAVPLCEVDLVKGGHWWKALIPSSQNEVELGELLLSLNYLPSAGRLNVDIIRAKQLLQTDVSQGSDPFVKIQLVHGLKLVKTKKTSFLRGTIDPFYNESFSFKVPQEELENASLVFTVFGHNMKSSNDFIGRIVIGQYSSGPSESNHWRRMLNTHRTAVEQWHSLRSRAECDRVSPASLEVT
Briefly: condition: 45 μg bait protein in 6 ml of clarified lysate; pull-down; Halo-tagged bait on HaloLink resin (45 μg bait protein) in 6 ml clarified mouse brain lysate (Triton X-100), 3 h at 4 °C; eluates assayed by Western blot for syntaxin-5 or syntaxin-13; only the target purified. For orientation: Immunoblotting shows a protein as a band on a membrane.

Results are given in words; binding and its absence hold for the method and conditions named. In cells and extracts the contact can be indirect. Sequences can lack the tags named with a protein.

B1: syntaxin-13 (protein, UniProt Q9ER00 1-274)
chain: MSYGPLDMYRNPGPSGPQPRDFNSIIQTCSGNIQRISQATAQIKNLMSQLGTKQDSSKLQENLQQLQHSTNQLAKETNELLKELGSLPLPLSASEQRQQKLQKERLMNDFSSALNNFQVVQRKVSEKEKESIARARAGSRLSAEDRQREEQLVSFDSHEEWNQMQSQEEEAAITEQDLELIKERETAIRQLEADILDVNQIFKDLAMMIHDQGDLIDSIEANVESSEVHVERATDQLQRAAYYQKKSRKKMCILVLVLSVIVTVLVVVIWVASK
For the molecule B1, the binding result was “no binding”.

B2: syntaxin-5 (protein, UniProt Q8K1E0 1-355)
chain: MIPRKRYGSKNTDQGVYLGLSKTQVLSPATAISSSSDSTPLPTPVALVPSPPDTMSCRDRTQEFQSACKSLQSRQNGIQTSKPALHAARQCSEFTLMARRIGKDLSNTFAKLEKLTILAKRKSLFDDKAVEIEELTYIIKQDINSLNKQIAQLQDFVRAKGSQSGRHLQTHSNTIVVSLQSKLASMSNDFKSVLEVRTENLKQQRNRREQFSRAPVSALPLAPNNLGGGPIILGAESRASRDVAIDMMDPRTSQQLQLIDEQDSYIQSRADTMQNIESTIVELGSIFQQLAHMVKEQEETIQRIDENVLGAQLDVEAAHSEILKYFQSVTSNRWLMVKIFLILIVFFIIFVVFLA
With B2, the binding result is recorded as “no binding”.
